{"source": "patent US8206970B2", "about": "“Production of 2-butanol and 2-butanone employing aminobutanol phosphate phospholyase” (Butamax(TM) Advanced Biofuels LLC, priority 2006, dated 2012)", "tested_on": "Vibrio Fluvialis APT (amine:pyruvate transaminase)", "assay": "alanine:acetoin aminotransferase activity of APT, lactic dehydrogenase coupled assay", "type": "biochemical, Vibrio Fluvialis JS17", "conditions": "100 mM bis-tris propane pH 9.0, 0.14 or 0.28 mg/mL purified enzyme", "note": "At least one read-out could not be matched to a standard name with certainty.", "data": [{"smiles": "CC(=O)C(C)O", "note": "(stereo not shown) [acetoin]", "values": [{"measurement": "kcat/Km", "value": 10, "unit": "M⁻¹ s⁻¹"}]}]}
